Test results as given in publication PMC8481254.
These are yes or no findings as the source states them, for the method shown. In cells and extracts the contact can be indirect. Some results given as binding are weak or reduced against the parent protein; the word gives no strength. Sequences can lack the tags named with a protein.

Amino acid sequences for entries named in this document (tags omitted).
UniProt P46937: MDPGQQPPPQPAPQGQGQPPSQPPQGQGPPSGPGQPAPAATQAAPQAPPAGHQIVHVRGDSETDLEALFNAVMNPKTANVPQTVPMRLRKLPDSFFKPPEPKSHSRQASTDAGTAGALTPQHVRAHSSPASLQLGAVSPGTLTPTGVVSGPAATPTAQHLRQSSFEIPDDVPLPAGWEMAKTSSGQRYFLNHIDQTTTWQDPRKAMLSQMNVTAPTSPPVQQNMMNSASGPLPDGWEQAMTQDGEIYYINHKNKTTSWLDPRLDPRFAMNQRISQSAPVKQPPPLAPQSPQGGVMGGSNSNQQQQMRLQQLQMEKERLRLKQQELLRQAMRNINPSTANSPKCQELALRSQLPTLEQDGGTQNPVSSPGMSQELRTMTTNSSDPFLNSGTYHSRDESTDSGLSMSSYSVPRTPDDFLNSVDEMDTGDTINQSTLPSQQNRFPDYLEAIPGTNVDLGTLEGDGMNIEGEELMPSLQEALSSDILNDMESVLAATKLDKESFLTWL

T1: O-linked N-acetylglucosamine (GlcNAc) transferase (UniProt O15294)
T1 sequence: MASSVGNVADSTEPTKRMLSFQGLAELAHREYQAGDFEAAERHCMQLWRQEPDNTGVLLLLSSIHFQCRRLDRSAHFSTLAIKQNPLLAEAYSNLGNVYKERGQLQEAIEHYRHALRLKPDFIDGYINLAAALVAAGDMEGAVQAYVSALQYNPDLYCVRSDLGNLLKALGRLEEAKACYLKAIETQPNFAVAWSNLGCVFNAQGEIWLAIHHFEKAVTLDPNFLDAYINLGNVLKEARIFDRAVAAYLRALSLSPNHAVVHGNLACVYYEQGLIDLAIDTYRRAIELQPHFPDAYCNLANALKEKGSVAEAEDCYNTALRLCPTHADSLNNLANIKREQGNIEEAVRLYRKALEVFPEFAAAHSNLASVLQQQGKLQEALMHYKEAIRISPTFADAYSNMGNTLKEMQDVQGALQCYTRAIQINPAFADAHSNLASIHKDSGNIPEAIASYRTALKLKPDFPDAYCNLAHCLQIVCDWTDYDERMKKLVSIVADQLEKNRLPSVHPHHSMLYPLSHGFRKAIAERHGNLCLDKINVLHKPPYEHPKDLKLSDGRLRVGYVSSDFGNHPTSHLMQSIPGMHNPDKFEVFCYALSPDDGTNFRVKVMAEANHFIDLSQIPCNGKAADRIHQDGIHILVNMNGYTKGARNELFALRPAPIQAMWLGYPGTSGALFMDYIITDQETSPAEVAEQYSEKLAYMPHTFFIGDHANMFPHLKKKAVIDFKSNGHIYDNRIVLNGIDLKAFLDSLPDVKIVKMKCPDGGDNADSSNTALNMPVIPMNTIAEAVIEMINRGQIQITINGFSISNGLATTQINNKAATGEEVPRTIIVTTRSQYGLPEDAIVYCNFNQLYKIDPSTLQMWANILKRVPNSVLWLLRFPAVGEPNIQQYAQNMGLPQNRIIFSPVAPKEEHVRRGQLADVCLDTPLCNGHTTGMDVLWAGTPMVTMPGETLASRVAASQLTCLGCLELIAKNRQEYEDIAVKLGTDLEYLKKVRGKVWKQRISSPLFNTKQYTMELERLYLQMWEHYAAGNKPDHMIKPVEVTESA


Assays:
[1] = target: T1, O-linked N-acetylglucosamine (GlcNAc) transferase; test: co-IP; reciprocal co-immunoprecipitation: IP with anti-YAP antibodies, OGT detected, and vice versa; cells not told
[2] = target: Yes-associated protein (UniProt P46937); test: as above

Row | binding [1] | binding [2] | Molecule
1 | binds | – | Yes-associated protein (from UniProt P46937 1-504)
2 | – | binds | O-linked N-acetylglucosamine (GlcNAc) transferase (enzyme, UniProt O15294 1-1046) MASSVGNVADSTEPTKRMLSFQGLAELAHREYQAGDFEAAERHCMQLWRQEPDNTGVLLLLSSIHFQCRRLDRSAHFSTLAIKQNPLLAEAYSNLGNVYKERGQLQEAIEHYRHALRLKPDFIDGYINLAAALVAAGDMEGAVQAYVSALQYNPDLYCVRSDLGNLLKALGRLEEAKACYLKAIETQPNFAVAWSNLGCVFNAQGEIWLAIHHFEKAVTLDPNFLDAYINLGNVLKEARIFDRAVAAYLRALSLSPNHAVVHGNLACVYYEQGLIDLAIDTYRRAIELQPHFPDAYCNLANALKEKGSVAEAEDCYNTALRLCPTHADSLNNLANIKREQGNIEEAVRLYRKALEVFPEFAAAHSNLASVLQQQGKLQEALMHYKEAIRISPTFADAYSNMGNTLKEMQDVQGALQCYTRAIQINPAFADAHSNLASIHKDSGNIPEAIASYRTALKLKPDFPDAYCNLAHCLQIVCDWTDYDERMKKLVSIVADQLEKNRLPSVHPHHSMLYPLSHGFRKAIAERHGNLCLDKINVLHKPPYEHPKDLKLSDGRLRVGYVSSDFGNHPTSHLMQSIPGMHNPDKFEVFCYALSPDDGTNFRVKVMAEANHFIDLSQIPCNGKAADRIHQDGIHILVNMNGYTKGARNELFALRPAPIQAMWLGYPGTSGALFMDYIITDQETSPAEVAEQYSEKLAYMPHTFFIGDHANMFPHLKKKAVIDFKSNGHIYDNRIVLNGIDLKAFLDSLPDVKIVKMKCPDGGDNADSSNTALNMPVIPMNTIAEAVIEMINRGQIQITINGFSISNGLATTQINNKAATGEEVPRTIIVTTRSQYGLPEDAIVYCNFNQLYKIDPSTLQMWANILKRVPNSVLWLLRFPAVGEPNIQQYAQNMGLPQNRIIFSPVAPKEEHVRRGQLADVCLDTPLCNGHTTGMDVLWAGTPMVTMPGETLASRVAASQLTCLGCLELIAKNRQEYEDIAVKLGTDLEYLKKVRGKVWKQRISSPLFNTKQYTMELERLYLQMWEHYAAGNKPDHMIKPVEVTESA
